Measurements as given in article PMC5119886, “POWERDRESS interacts with HISTONE DEACETYLASE 9 to promote aging in Arabidopsis” (eLife, 2016).

Chains of the proteins cited; added tags and fusions are not shown.
UniProt O22130: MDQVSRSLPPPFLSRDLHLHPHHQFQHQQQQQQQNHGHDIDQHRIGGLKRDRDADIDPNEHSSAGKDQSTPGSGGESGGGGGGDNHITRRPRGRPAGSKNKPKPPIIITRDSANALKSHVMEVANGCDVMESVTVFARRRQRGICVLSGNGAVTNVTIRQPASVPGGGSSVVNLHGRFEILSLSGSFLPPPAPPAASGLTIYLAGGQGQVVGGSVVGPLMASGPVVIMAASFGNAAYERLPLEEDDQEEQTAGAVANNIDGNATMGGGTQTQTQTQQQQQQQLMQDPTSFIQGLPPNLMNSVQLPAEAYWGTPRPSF

T1: HDA9-3xFLAG (HISTONE … 9, pHDA9::HDA9-3xFLAG/hda9) (Arabidopsis thaliana) (UniProt Q8H0W2)
T1 sequence: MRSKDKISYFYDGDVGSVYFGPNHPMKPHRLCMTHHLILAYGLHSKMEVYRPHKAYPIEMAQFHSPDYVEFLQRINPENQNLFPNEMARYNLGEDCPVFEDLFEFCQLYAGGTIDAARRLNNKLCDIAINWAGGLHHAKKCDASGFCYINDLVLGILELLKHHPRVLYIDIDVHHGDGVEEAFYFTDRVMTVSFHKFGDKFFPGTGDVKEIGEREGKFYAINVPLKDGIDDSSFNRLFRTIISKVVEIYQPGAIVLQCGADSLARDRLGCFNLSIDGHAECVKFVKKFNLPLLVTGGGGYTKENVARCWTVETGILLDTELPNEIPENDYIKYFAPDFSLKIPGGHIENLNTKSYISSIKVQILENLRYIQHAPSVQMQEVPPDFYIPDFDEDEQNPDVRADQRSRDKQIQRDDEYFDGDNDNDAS

B1: GST-WRKY53 (GST tagged full-length WRKY53) (natural protein, Arabidopsis thaliana, UniProt Q9SUP6 1-324, looked up)
chain: MEGRDMLSWEQKTLLSELINGFDAAKKLQARLREAPSPSSSFSSPATAVAETNEILVKQIVSSYERSLLLLNWSSSPSVQLIPTPVTVVPVANPGSVPESPASINGSPRSEEFADGGGSSESHHRQDYIFNSKKRKMLPKWSEKVRISPERGLEGPQDDVFSWRKYGQKDILGAKFPRSYYRCTHRSTQNCWATKQVQRSDGDATVFEVTYRGTHTCSQAITRTPPLASPEKRQDTRVKPAITQKPKDILESLKSNLTVRTDGLDDGKDVFSFPDTPPFYNYGTINGEFGHVESSPIFDVVDWFNPTVEIDTTFPAFLHESIYY
notes: WRKY53 transcription factor, Arabidopsis thaliana; full-length cDNA cloned into pGOOD (pGEX-6P modified by adding a 6XHIS tag at the C terminus); Primers are in Supplementary file 1; source: E. coli, induced with 200 uM IPTG for three hours at 37°C, purified

What was measured:
[1] = biological target: T1, HDA9-3xFLAG (HISTONE … 9, pHDA9::HDA9-3xFLAG/hda9) (Arabidopsis thaliana); assay: affinity purification with mass spectrometry; about 20 g leaves of HDA9-FLAG, PWR-FLAG or WT (negative control) plants; extract in IP Binding Buffer (50 mM Tris-HCl pH 8, 150 mM NaCl, 5 mM MgCl2, 5% glycerol, 0.1% NP-40, 1 mM DTT); anti-FLAG M2 magnetic beads, 4°C, 3 hr; eluted with 3xFLAG peptide; Orbitrap MS
[2] = biological target: T1, HDA9-3xFLAG (HISTONE … 9, pHDA9::HDA9-3xFLAG/hda9) (Arabidopsis thaliana); assay: as above; remark: listed apart in the source

binding [1]	binding [2]	Molecule
binds	–	AHL22, endogenous (from UniProt O22130 1-317)
–	binds	B1

Read-outs that look alike come from different tables or passages of the source. No constants are given. Whether binding was seen depends on the method and setting. Binding seen in cells or lysates may run through a third protein. A yes stands for co-enrichment or nearness to the bait. Other partners may have been found. Tags and fused reporters may be left off the sequences shown.
